These are yes or no findings as the source states them, for the method shown. Binding seen in cells or lysates may run through a third protein. Some binding calls cover weakened binding; strength is not graded here.
Target: GST-E2F1 (UniProt Q01094)
Test: pull-down; GST-E2F1 loaded on glutathione-Sepharose 4b beads; 20 µl 35S-labelled in vitro translated DRIL1, unmodified or sumoylated (mixture of unsumoylated and monosumoylated); 2 hours at 4°C; 50 mM Tris pH 7.5, 150 mM NaCl, 0.1% Nonidet P-40, 1 mM DTT, 20 mM NEM; autoradiography, quantified by ImageJ; only the target purified

Amino acid sequences for entries named in this document (tags omitted).
UniProt Q01094: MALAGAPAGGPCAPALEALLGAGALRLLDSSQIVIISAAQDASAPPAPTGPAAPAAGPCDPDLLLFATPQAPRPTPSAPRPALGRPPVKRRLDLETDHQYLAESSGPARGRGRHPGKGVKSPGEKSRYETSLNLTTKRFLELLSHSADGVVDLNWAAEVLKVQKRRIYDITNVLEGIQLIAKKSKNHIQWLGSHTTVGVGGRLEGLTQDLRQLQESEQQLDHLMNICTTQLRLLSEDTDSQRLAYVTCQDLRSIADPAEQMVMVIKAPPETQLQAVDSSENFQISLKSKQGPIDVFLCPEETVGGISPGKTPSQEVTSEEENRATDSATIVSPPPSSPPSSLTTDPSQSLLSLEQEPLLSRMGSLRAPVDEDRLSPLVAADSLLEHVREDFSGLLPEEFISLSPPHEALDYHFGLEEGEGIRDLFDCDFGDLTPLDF

binding: binds
B1: DRIL1 (E2FBP1/ARID3A/DRIL1), wild type, unsumoylated (protein, UniProt Q99856 1-593)
chain: MKLQAVMETLLQRQQRARQELEARQQLPPDPPAAPPGRARAAPDEDREPESARMQRAQMAALAAMRAAAAGLGHPASPGGSEDGPPGSEEEDAAREGTPGSPGRGREGPGEEHFEDMASDEDMKPKWEEEEMEEDLGEDEEEEEEDYEDEEEEEDEEGLGPPGPASLGTTALFPRKAQPPQAFRGDGVPRVLGGQERPGPGPAHPGGAAHVAPQLQPPDHGDWTYEEQFKQLYELDGDPKRKEFLDDLFSFMQKRGTPVNRIPIMAKQVLDLFMLYVLVTEKGGLVEVINKKLWREITKGLNLPTSITSAAFTLRTQYMKYLYPYECEKRGLSNPNELQAAIDSNRREGRRQSFGGSLFAYSPGGAHGMLSSPKLPVSSLGLAASTNGSSITPAPKIKKEEDSAIPITVPGRLPVSLAGHPVVAAQAAAVQAAAAQAAVAAQAAALEQLREKLESAEPPEKKMALVADEQQRLMQRALQQNFLAMAAQLPMSIRINSQASESRQDSAVNLTGTNGSNSISMSVEINGIMYTGVLFAQPPAPTPTSAPNKGGGGGGGSSSNAGGRGGNTGTSGGQAGPAGLSTPSTSTSNNSLP
modifications: 35S-methionine label
